MIC data for one compound are collected here from patent US20120277719A1, “COATING COMPOSITIONS, METHODS AND COATED DEVICES” (MASSACHUSETTS INSTITUTE OF TECHNOLOGY, priority 2011, published 2012).

≈ marks a conversion by molar mass, not a printed value.

The assay deals with S. aureus 25923. Briefly: S. aureus growth inhibition by dilutions of film release solutions (optical density at 600 nm). Particulars: Staphylococcus aureus, 16-18 hours, 37 C, 10^5 CFU/mL, read-out: MIC against S. aureus. Type of assay: cell-based. The procedure: A quantitative determination of vancomycin activity from a coated gelatin sponge sample was obtained by first completely releasing the coated sponge into a 1 mL, 0.01 M PBS bath, at 37° C. The exact concentration of vancomycin in this release solution was determined using HPLC methods described earlier. Subsequently, S. aureus in its exponential growth phase was added to dilutions of this release solution in CaMHB at a final concentration of 10^5 CFU/mL. Non-film released vancomycin was also tested. Additionally, controls of 0.01 M PBS dilutions in media containing no drug exposed to S. aureus (positive control) and not exposed to S. aureus (negative control) were included. These dilutions were incubated at 37° C. for 16-18 hours with agitation, following which, optical density at 600 nm was read using a BioTek PowerWave XS plate reader. Normalized bacteria density was calculated as follows: […]

Turning to `CN[C@H](CC(C)C)C(=O)N[C@H]1C(=O)N[C@@H](CC(N)=O)C(=O)N[C@H]2C(=O)N[C@H]3C(=O)N[C@H](C(=O)N[C@H](C(=O)O)c4cc(O)cc(O)c4-c4cc3ccc4O)[C@H](O)c3ccc(c(Cl)c3)Oc3cc2cc(c3O[C@@H]2O[C@H](CO)[C@@H](O)[C@H](O)[C@H]2O[C@H]2C[C@](C)(N)[C@H](O)[C@H](C)O2)Oc2ccc(cc2Cl)[C@H]1O` [vancomycin], the MIC (commonly the lowest concentration that inhibits growth of the organism) lay within 0.5 to 2 mg/L (≈ 0.345 to 1.38 µM).
